Experimental data taken from paper PMC12490859.
These are yes or no findings as the source states them, for the method shown. Binding seen in cells or lysates may run through a third protein. Some binding calls cover weakened binding; strength is not graded here.

Sequences of proteins named here, by UniProt entry; tags and fusion partners are left off. Residues count along the entry.
UniProt P62812, residues 28-455: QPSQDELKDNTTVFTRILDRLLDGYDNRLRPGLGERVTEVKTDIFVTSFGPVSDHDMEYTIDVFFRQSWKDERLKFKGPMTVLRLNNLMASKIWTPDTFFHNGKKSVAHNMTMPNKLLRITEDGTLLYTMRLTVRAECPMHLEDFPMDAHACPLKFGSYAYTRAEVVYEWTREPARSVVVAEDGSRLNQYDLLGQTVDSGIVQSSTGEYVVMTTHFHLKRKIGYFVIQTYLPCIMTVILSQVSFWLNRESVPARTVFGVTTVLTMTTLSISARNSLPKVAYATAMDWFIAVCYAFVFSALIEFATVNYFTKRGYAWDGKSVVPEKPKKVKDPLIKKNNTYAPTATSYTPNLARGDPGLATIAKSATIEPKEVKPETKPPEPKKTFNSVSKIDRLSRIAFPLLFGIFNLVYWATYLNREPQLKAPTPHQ
UniProt Q69ZK9, residues 15-836: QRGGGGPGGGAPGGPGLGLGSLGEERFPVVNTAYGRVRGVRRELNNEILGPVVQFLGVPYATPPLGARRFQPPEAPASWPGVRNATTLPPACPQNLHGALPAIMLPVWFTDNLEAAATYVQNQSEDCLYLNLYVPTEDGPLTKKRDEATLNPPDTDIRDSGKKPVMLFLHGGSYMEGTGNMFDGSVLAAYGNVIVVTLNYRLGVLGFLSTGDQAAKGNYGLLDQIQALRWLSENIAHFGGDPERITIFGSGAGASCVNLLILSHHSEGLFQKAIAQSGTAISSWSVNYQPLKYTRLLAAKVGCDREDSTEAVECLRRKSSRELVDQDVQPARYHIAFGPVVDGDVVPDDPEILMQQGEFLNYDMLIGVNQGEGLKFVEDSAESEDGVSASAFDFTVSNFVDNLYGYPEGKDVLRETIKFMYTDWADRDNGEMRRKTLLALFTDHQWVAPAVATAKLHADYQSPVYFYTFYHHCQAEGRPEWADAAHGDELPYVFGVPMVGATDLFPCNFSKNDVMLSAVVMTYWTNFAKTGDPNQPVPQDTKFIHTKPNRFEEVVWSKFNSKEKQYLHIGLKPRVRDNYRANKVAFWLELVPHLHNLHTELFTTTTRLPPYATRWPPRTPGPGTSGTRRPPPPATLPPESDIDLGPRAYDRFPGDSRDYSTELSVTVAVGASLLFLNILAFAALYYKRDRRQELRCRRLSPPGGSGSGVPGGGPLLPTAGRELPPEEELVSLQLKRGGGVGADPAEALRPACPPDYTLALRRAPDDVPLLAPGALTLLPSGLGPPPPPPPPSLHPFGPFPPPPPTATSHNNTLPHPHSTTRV

Target: GABAAR α1 subunit (mouse (endogenous in mouse brain)) (UniProt P62812)
Assay: co-IP; immunoisolation from the membrane fraction (P100) of mouse hippocampi, buffer without detergent (Tris-HCl 20 mM, HEPES 10 mM, NaCl 150 mM, sucrose 250 mM, EDTA 0.5 mM), Dynabeads Protein A coupled with rabbit anti-EndoA1 or rabbit anti-GABAAR α1; immunoblotting; also from Sh3gl2+/+ and Sh3gl2-/- brains

- binding: binds
Substance: neuroligin-2 (from UniProt Q69ZK9 15-836)
